## Percent effect of library compounds

The chains behind the UniProt entries cited, without tags or fusion partners. Residues count along the entry.
UniProt Q8IDJ8, 1-583: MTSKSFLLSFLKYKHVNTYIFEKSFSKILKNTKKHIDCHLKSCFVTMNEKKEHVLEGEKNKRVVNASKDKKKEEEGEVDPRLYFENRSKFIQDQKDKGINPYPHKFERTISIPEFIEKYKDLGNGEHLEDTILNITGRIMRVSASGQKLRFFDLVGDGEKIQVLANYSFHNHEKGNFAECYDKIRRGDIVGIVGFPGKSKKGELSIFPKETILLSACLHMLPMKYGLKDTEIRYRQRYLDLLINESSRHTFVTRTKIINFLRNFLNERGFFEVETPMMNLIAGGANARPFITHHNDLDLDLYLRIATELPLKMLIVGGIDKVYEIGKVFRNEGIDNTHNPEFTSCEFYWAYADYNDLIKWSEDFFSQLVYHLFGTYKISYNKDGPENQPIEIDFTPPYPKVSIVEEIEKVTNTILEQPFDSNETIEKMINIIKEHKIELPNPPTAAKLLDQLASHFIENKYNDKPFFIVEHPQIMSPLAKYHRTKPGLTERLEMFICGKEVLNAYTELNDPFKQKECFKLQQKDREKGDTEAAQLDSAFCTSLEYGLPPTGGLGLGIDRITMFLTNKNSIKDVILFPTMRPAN
UniProt P9WFT3, whole entry: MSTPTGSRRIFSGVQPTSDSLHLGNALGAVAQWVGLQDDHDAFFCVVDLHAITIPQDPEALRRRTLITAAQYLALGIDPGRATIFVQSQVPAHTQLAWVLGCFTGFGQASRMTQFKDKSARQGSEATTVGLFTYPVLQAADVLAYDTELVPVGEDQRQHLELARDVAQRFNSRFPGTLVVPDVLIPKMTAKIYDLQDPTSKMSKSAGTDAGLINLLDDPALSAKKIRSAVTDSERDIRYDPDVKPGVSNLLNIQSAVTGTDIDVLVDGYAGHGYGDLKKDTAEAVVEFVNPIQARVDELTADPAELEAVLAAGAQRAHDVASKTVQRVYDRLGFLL
UniProt P9WPC5, whole entry: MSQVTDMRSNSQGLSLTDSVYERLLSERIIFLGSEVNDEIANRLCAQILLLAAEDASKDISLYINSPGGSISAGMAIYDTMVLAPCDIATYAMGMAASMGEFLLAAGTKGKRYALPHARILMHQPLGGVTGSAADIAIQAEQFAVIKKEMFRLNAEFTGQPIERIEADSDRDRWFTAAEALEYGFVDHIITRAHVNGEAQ
UniProt P9WPC3, whole entry partner: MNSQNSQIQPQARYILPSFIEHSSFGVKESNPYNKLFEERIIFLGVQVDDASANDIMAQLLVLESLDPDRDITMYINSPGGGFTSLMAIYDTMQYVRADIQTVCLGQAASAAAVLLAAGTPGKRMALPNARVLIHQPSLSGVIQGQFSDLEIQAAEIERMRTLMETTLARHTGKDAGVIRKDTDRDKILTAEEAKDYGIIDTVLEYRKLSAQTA

Data taken from ChEMBL document CHEMBL3988442, “University of Dundee, Small-Polar-MMV Screening Library” (2021).

A: 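Lysine-tRNA ligase, Plasmodium falciparum 3D7 (UniProt Q8IDJ8). Enzyme assay of the cytosolic lysyl-tRNA synthetase in 384-well plates, read by luminescence. Concentration: 30 µM. Direction is inferred from only a few compounds that gave an IC50; most scored high, so higher reads as stronger inhibition. Of about 69,000 compounds tested this way, about 49 (0.071%) reached 50% or more in at least one test.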
B: 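Tryptophan-tRNA ligase, Mycobacterium tuberculosis (UniProt P9WFT3). Enzyme assay of tryptophanyl-tRNA synthetase; the read-out is not stated. Compounds at 10 µM. Direction is not recorded; retested compounds ran higher, which suggests that high means inhibition. Of about 65,000 compounds tested this way, about 64 (0.098%) reached 50% or more in at least one test.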
C: 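Protease assay of ClpP1P2, read by the AMC dye that it sets free. Target: ClpP1P2, Mycobacterium tuberculosis (UniProt P9WPC5 and UniProt P9WPC3). Concentration: 50 µM. Direction is inferred from only a few compounds that gave an IC50; most scored high, so higher reads as stronger inhibition. Most other retested compounds had strongly negative values. Of about 69,000 compounds tested this way, about 10 (0.015%) reached 50% or more in at least one test.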

Values are the deposited “Percent Effect”, in %.
The controls that fix the scale are not given in the record; negative values are as filed.
This is an unselected part of the compounds tested.
A dash means the value is not listed here; it may have been measured.

compound	A	B	C
Cc1nc(C)n(C2CCCN(C(=O)c3sccc3C3CC3)C2)n1 (stereo not drawn)	-0.5333	-3.226	-1.826
COc1cc(C)sc1C(=O)N1CC(c2cccnc2)C1	-4.047	-3.793	-5.553
COc1ccc(-c2nc(CNC(C)Cn3cccn3)cs2)cc1 (stereo not drawn)	1.773	-7.542	4.435
COCCNc1nc(NCCc2ccccc2)nc2nccnc12	0.7494	-0.4619	-358.1
COC(=O)COc1nc(CC(C)C)c2c(c1C#N)CCCC2	-1.998	-0.919	7.359
N#Cc1cccc(N2CCCC3(CN(C(=O)c4ccc[nH]4)CCO3)C2)c1 (stereo not drawn)	0.6085	-8.815	0.5474
COCC(=O)N1CCC2(COCc3cnc(-c4ccccc4)nc32)C1 (stereo not drawn)	5.067	2.169	-3.087
COc1ccc(Cl)cc1CS(=O)(=O)CC(=O)N(C)Cc1ccccc1F	10.71	3.173	-13.32
CC(=O)N1CCC2(CCN(C(=O)c3ccc(F)c(C(F)(F)F)c3)C2)C1 (stereo not drawn)	1.598	-4.534	1.735
Cc1cccc2nc(C(=O)N3CCC(Nc4cccnn4)CC3)cn12	5.035	4.613	10.01
O=C(O)c1cccc(N2C[C@H](NC(=O)C3CCOCC3)[C@@H](C3CC3)C2)n1	-0.1201	1.933	-5.272
COc1cc2c(cc1-c1nc3c(cnn3C(C)C)[nH]1)OCO2	3.758	2.034	56.22
CN1C(=O)[C@H]2CC[C@@H]1CN(c1ncnc3ccsc13)C2	1.962	0.6721	3.431
CCc1ccc(NC(=O)N2Cc3c(CN(C)C)nn(C)c3C2)cc1	3.189	-1.481	-6.901
CCC(C)(C)C(=O)N1C[C@@H]2C[C@@H](c3nnc(C)[nH]3)O[C@@H]2C1	0.5146	-	0.2206
COCCn1ccc(NC(=O)Nc2ccc(C(N)=O)c(F)c2)n1	4.748	-7.097	1.34
Cc1ccc(C(=O)N2C[C@H](N3CCOCC3)[C@@H]3OCCC[C@@H]32)cn1	2.205	-	-8.499
CS(=O)(=O)c1ccc(C(=O)N2CCCC(n3cccn3)C2)cc1 (stereo not drawn)	-0.3413	-3.476	-15.51
CCc1csc(C2CCCN(C(=O)c3ccncc3)C2)n1 (stereo not drawn)	0.8198	-5.606	-9.08
COc1ccc(CN(C)C2CSCCSC2)c2cccnc12	-0.0497	2.27	-4.986
O[C@H]1CC[C@@H](Cc2cc(-c3ccccn3)on2)O[C@@H]1CNCC1CC1	2.64	0.8364	3.257
c1cnn(CCNCc2cnc(N3CCOCC3)nc2)c1	2.577	-2.311	-4.376
COc1ccc(CN2C[C@H]3CCC[C@@H](CN(C)C4CC4)[C@H]3C2)cn1	-0.6085	9.803	4.372
CC(C)c1nccn1C1CCCN(C(=O)c2ccsc2)C1 (stereo not drawn)	9.71	1.058	-3.531
O=C(Nc1cccnc1)N1CCC(n2ccc(C(F)(F)F)n2)CC1	-2.886	5.631	-9.126
COc1ccc(C(=O)N2CCCS2(=O)=O)cc1	-0.3018	-5.423	-34.09
COc1ccnc(N2C[C@@H]3CC[C@H](C2)N(CC2CCC2)C3=O)n1	5.418	-3.153	-18.75
CSc1cccc(CN(C)C(=O)Nc2nc(C)n(C)n2)c1	15.53	5.255	2.184
COC(=O)NCCC(=O)NC(C)Cc1ccccc1Br (stereo not drawn)	2.711	-0.6606	-2.56
Cc1nc(C2CCN(C(=O)c3ccn(C)n3)CC2)c2sccn12	4.063	-	11.99
CCc1ccc(CN2CCC3(CCCN(C(=O)c4cnccn4)C3)C2)o1 (stereo not drawn)	1.039	-0.8112	-3.349
COCCCC1(CO)CCCN(Cc2ccc(F)c(OC)c2)C1 (stereo not drawn)	1.623	-3.483	-5.688
Cc1ccc(C(=O)Nc2cn[nH]c2)cc1C	-3.189	-5.031	19.51
COCCNC(=O)NCCc1cccc(OC)c1O	2.252	-6.049	-0.02004
Cc1nnc(CN2CCOC(c3ccc(Cl)c(Cl)c3)C2)o1 (stereo not drawn)	5.618	2.315	-14.99
O=C(O)CN1CCCC2(CCN2Cc2cccc(F)c2)C1 (stereo not drawn)	2.179	-	-9.457
N#Cc1cccn(CCOc2ccc(Cl)cc2)c1=O	-1.748	10.49	-14.95
Cc1nc[nH]c1CN1C[C@@H]2CC[C@H](C1)N(C(=O)c1cnn(C)c1)C2	2.857	3.565	6.793
Cc1cccc(Nc2cc(C3CCCN(CC(N)=O)C3)ccn2)n1 (stereo not drawn)	1.217	-3.958	-2.397
CN(Cc1cccc(F)c1)C1CCN(CCc2ccccn2)CC1	-2.516	-1.263	14.08
CCOCC(=O)N1CCC(Oc2ccc(Cl)cn2)CC1	0.1664	-2.977	-10.12
CC1CCCN(Cc2ccnc(-c3cccnc3)n2)C1 (stereo not drawn)	2.426	-	2.058
Cc1ccc(C(=O)Nc2ccc(N(C)C)nc2)n1C	2.709	-3.805	12.8
COc1cccnc1NC(=O)COC1CCCC1	-8.231	2.251	-9.276
COCCN1C(=O)[C@H]2CC[C@@H]1CN(Cc1nnc(C3CC3)o1)C2	-1.513	-1.028	-0.3622
Cc1nc2c(c(NC3CC3)n1)CCN(C(=O)CCc1cccnc1)CC2	2.154	-1.236	-8.82
Cc1cc(C)n(CC2CCCN2C(=O)CCc2ccco2)n1 (stereo not drawn)	-0.8933	-2.197	-15.01
CCN(CC)c1ncc2c(c1C(=O)O)CCN(C1CCOC1)C2 (stereo not drawn)	8.64	5.717	12.15
O=C(CC1=CCCCC1)NCCc1csc(N2CCCC2)n1	2.403	1.776	-22.8
Cc1cc(NC(=O)CN2CCC(N3CCNC3=O)CC2)on1	1.192	-2.215	-35.59
Cc1cc(CN2CCN(C(=O)NCCCc3cn[nH]c3C)CC2)on1	4.045	-6.806	-0.343
COCCN(C)C[C@@H]1CN(C(=O)c2sc3ccccc3c2C)C[C@@H]1CO	4.002	0.3003	-8.469
CCC1C(=O)NCCN1c1cc(C)ncn1 (stereo not drawn)	-0.08237	-2.583	-14.68
Cc1cc(C)c(C(=O)N2CCCC(C(=O)CCc3ccccc3)C2)cn1 (stereo not drawn)	5.448	0.9517	3.174
Cc1c(CN2CCC(C(=O)O)(n3ccnc3)CC2)oc2ccccc12	2.232	-0.7843	-8.25
CC1CCCN(C(=O)c2nnn(-c3ccc(C(F)(F)F)cc3)n2)C1 (stereo not drawn)	6.01	-2.812	-3.912
O=c1n(Cc2ncccn2)nc(C2CCNCC2)n1-c1ccccc1	5.752	0.2974	3.925
CNC(C(=O)OC)c1cc(F)ccc1F (stereo not drawn)	-0.02766	-2.321	-13.04
COCCc1noc(C2CCCN(c3ncnc4c3CCC4)C2)n1 (stereo not drawn)	3.104	0.5939	-7.34
Cc1cc(N2CCC(Cc3ccccc3)CC2)nc(-c2ccncc2)n1	-3.241	-2.861	-3.14

Repeated from the top, 7 entries:

Cc1nc(C)n(C2CCCN(C(=O)c3sccc3C3CC3)C2)n1 (stereo not drawn) gave A: -0.5333%; B: -3.226%; C: -1.826%.
COc1cc(C)sc1C(=O)N1CC(c2cccnc2)C1 gave A: -4.047%; B: -3.793%; C: -5.553%.
COc1ccc(-c2nc(CNC(C)Cn3cccn3)cs2)cc1 (stereo not drawn) gave A: 1.773%; B: -7.542%; C: 4.435%.
COCCNc1nc(NCCc2ccccc2)nc2nccnc12 gave A: 0.7494%; B: -0.4619%; C: -358.1%.
COC(=O)COc1nc(CC(C)C)c2c(c1C#N)CCCC2 gave A: -1.998%; B: -0.919%; C: 7.359%.
N#Cc1cccc(N2CCCC3(CN(C(=O)c4ccc[nH]4)CCO3)C2)c1 (stereo not drawn) gave A: 0.6085%; B: -8.815%; C: 0.5474%.
COCC(=O)N1CCC2(COCc3cnc(-c4ccccc4)nc32)C1 (stereo not drawn) gave A: 5.067%; B: 2.169%; C: -3.087%.